From the supplement of paper PMC10849652
Some of the results follow.

Sequences of proteins named here, by UniProt entry; tags and fusion partners are left off. A change or cut given only in a name is not applied to a line headed by its entry.
UniProt P35250, whole entry, looked up: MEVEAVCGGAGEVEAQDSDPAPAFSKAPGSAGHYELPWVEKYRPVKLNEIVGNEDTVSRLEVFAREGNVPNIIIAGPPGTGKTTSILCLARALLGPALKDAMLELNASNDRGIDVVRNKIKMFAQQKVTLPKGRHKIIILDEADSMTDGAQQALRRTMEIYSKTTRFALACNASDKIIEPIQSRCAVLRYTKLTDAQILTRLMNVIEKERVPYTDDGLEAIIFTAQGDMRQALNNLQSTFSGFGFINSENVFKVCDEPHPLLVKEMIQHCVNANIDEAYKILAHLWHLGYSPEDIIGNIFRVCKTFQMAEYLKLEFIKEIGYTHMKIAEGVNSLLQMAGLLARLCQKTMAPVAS
UniProt Q8NC44: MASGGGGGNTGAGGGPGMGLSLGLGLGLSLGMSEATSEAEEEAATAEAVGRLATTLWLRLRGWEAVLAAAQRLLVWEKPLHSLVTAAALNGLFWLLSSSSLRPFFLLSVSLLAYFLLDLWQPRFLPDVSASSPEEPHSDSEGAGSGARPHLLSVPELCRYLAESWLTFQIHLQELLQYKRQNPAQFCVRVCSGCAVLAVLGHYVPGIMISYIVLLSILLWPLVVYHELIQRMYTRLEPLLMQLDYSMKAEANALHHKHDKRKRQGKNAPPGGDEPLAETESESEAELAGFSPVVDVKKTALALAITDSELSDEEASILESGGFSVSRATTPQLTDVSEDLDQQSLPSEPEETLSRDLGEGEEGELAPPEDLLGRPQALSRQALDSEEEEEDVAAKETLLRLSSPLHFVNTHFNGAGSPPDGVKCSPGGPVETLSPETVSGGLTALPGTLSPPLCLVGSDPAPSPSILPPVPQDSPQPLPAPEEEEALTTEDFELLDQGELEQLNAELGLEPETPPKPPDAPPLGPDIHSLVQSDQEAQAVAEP
UniProt P18754: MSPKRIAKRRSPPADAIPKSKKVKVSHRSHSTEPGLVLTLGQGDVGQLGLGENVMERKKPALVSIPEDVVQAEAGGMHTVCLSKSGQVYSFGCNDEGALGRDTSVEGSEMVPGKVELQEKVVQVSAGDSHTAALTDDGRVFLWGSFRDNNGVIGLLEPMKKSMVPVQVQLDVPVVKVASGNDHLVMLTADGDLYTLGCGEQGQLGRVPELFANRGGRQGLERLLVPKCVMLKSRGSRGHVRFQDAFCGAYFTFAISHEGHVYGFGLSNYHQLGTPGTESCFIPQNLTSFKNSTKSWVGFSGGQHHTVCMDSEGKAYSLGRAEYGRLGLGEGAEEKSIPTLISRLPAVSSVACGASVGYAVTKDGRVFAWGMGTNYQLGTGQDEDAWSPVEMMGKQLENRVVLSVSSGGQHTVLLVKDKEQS
UniProt O75792: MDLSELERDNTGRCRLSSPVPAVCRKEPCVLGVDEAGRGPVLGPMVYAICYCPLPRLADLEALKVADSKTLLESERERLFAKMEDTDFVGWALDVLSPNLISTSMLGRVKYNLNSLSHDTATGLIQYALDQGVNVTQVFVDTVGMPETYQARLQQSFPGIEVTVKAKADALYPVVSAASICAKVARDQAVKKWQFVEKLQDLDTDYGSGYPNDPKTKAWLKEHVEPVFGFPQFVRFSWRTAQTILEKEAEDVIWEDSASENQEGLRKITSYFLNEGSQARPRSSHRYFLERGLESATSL
UniProt Q99496: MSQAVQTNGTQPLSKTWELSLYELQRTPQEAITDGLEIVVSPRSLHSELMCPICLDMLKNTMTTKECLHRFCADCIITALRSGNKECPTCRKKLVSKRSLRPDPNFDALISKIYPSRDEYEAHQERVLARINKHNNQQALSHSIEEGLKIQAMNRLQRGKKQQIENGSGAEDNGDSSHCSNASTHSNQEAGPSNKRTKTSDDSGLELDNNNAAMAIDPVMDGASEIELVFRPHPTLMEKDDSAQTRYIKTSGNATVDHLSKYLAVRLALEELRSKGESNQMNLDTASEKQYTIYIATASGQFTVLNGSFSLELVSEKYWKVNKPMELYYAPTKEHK
UniProt Q969G6: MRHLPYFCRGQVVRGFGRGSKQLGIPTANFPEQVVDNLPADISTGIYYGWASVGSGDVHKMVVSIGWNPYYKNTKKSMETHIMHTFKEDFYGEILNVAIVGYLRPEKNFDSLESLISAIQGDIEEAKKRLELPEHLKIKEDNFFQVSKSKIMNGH
UniProt Q9HBH5: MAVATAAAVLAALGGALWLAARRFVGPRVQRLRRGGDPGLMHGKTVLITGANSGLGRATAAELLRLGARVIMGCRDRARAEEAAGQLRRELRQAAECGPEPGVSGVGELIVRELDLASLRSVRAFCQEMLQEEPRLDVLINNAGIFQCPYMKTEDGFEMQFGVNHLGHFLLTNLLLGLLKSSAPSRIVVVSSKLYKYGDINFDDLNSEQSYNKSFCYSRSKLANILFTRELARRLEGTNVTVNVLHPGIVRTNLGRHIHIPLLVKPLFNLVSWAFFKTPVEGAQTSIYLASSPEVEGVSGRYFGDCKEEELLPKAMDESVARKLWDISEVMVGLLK
UniProt Q9H1K0: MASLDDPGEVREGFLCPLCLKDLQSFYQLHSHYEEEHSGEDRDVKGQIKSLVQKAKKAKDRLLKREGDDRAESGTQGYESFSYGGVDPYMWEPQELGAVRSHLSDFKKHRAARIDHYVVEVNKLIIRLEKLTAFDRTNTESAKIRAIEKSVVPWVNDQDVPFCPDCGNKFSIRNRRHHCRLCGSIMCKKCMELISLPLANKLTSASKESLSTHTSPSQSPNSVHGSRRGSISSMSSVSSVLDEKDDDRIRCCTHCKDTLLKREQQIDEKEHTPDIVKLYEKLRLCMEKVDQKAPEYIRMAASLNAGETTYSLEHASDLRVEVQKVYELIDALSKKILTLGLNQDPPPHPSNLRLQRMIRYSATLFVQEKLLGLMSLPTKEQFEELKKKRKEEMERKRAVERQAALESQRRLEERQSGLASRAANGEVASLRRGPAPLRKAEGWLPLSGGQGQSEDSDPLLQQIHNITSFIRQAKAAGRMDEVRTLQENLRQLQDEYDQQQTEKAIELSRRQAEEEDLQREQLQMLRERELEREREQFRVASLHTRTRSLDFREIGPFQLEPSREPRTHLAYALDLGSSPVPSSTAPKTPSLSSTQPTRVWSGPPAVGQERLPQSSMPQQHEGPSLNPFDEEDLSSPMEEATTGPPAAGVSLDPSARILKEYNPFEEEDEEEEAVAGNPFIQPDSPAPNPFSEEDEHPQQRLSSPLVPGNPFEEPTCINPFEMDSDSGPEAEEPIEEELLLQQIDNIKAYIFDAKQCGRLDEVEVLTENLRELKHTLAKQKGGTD
UniProt Q5VTR2, whole entry, looked up: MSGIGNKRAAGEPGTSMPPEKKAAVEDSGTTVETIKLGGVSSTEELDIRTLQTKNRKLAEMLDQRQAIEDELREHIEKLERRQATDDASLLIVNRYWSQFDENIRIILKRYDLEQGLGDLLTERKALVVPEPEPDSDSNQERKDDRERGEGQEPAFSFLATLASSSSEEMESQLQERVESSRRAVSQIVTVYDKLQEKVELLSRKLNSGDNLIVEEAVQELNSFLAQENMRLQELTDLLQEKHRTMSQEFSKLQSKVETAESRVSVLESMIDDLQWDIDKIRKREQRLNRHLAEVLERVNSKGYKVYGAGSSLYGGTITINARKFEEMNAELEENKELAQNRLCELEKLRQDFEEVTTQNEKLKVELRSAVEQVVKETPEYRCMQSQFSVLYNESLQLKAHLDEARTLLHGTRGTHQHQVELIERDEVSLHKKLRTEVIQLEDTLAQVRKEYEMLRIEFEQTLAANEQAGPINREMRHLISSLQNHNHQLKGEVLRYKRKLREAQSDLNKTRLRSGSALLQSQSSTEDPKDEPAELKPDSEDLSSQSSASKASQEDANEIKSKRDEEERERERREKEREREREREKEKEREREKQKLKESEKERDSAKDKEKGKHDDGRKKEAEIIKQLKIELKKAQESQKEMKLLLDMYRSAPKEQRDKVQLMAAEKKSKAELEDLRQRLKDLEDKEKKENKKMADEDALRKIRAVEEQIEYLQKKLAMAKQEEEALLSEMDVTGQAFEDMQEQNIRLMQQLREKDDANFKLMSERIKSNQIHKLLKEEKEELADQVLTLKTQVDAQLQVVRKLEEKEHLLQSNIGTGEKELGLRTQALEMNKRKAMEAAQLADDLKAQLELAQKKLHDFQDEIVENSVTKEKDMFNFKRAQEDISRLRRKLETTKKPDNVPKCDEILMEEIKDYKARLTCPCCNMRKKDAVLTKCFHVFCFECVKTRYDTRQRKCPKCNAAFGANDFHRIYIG
UniProt Q9NTX7: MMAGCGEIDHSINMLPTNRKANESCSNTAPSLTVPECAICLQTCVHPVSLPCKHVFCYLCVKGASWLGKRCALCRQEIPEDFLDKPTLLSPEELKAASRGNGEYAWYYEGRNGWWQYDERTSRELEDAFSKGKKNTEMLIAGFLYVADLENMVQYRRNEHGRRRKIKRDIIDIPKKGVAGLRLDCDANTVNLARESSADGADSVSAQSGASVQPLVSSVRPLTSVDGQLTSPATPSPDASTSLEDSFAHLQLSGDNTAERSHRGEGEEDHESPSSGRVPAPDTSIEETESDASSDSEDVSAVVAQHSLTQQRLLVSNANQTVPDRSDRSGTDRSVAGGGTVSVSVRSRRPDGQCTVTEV
UniProt Q8IZV5: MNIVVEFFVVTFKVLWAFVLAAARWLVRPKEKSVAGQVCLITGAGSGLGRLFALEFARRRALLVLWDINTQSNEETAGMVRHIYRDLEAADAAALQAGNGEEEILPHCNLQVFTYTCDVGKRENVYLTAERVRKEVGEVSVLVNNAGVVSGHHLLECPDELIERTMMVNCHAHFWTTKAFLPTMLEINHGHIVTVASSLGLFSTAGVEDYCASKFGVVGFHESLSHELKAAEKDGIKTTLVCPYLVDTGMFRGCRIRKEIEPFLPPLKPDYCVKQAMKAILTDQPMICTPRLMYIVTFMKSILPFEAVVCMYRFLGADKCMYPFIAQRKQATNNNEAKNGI
UniProt Q5VTB9: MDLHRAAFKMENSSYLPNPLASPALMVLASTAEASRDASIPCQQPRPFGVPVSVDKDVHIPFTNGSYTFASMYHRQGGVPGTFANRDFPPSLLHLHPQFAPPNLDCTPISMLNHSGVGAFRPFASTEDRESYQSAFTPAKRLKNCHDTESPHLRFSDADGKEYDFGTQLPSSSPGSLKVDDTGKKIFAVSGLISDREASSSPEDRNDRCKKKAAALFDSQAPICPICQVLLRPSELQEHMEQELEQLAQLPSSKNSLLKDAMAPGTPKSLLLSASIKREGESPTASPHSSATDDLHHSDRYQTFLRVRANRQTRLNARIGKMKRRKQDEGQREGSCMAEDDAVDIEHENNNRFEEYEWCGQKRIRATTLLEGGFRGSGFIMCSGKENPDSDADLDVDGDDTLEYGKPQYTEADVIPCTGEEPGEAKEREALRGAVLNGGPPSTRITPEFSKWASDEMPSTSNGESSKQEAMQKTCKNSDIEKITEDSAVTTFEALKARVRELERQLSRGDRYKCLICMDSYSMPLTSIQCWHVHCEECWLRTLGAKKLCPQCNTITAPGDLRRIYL
UniProt P82980: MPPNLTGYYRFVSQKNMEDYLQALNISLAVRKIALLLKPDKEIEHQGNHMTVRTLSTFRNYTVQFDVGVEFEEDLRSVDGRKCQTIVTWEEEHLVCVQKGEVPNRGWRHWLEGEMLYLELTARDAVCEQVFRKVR
UniProt Q9ULI2: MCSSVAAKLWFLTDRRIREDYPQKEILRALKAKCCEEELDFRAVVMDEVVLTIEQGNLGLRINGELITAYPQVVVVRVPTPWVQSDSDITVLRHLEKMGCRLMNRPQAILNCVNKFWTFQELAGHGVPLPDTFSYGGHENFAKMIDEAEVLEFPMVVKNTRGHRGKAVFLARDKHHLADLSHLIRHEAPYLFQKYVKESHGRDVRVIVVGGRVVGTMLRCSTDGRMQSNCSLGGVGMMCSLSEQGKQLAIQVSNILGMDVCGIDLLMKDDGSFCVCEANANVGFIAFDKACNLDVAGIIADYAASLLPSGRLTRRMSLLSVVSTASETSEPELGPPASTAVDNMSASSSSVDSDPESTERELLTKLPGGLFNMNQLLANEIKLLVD
UniProt Q9Y3C5: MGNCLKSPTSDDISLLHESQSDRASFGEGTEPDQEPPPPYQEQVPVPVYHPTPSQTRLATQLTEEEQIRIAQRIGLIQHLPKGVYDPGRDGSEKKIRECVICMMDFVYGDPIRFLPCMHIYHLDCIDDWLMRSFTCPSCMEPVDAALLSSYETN
UniProt O43567: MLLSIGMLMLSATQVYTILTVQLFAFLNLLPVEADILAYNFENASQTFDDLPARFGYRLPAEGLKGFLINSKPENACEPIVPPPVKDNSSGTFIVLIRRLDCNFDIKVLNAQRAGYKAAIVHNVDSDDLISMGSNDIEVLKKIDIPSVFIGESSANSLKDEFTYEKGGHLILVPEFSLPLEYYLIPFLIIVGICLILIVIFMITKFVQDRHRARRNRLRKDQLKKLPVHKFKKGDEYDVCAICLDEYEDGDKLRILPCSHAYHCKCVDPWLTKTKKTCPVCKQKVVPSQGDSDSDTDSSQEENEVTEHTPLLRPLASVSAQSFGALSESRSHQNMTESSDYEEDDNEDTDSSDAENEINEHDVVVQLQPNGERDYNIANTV

Legend:
Experiment in all cases: log2 fold change, soluble protein after heating vs DMSO (PISA); higher = thermal stabilisation; K562 cells, 10 uM, 30 min; active = over 0.2 and 3.5 SD of the protein, either way, in both replicates (recomputed)
erlotinib = compound: C#Cc1cccc(Nc2ncnc3cc(OCCOC)c(OCCOC)cc23)c1 [erlotinib]
In short: (§1)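 Soluble protein was defined as the supernatant after 21,000xg for 90 min. It came from K562 cells at 2×10^6 cells/mL given 10 μM compound for 30 min, heated in aliquots for 3 min across 48°C-58°C, pooled, and extracted in PBS with 0.5% NP-40 at 4°C, and was quantified by TMTpro 16plex LC-MS/MS with equalised channel sums. Thermal stability against control samples, from duplicates, is reported as log2 fold change.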

[1] = compound: C/C(=N\NC(=O)C1=CC(=CC=C1)S(=O)(=O)N2CCOCC2)/C3=C(C=CC(=C3)Cl)O
In short: as §1

[2] = compound: C1=CC(=C(C=C1Cl)C2=NC3=NC=CN=C3C(=N2)NC4=CC=NC=C4)F
In short: as §1

[3] = compound: C1=CC(=CC=C1C2=NC3=C(N2)C=C(C=C3)C(=O)N)OC4=CC=C(C=C4)Cl
In short: as §1

[4] = compound: C1=CC2=C(C=CC(=C2)/C=C\3/C(=O)NC(=NCC4=CC=CS4)S3)N=C1
In short: as §1

[5] = compound: C1=CC2=NC=CN=C2C=C1/C=C/3\C(=O)NC(=O)S3
In short: as §1

[6] = compound: C1=CC=C(C=C1)C2=NC(=C(N2)C3=CC=NC=C3)C4=CC(=C(C=C4)Cl)O
In short: as §1

[7] = compound: C1=CC=C2C(=C1)C3=NNC4=CC=CC(=C43)C2=O
In short: as §1

[8] = compound: C1CCN(C1)C(=O)NC2=CC=CC(=C2)NC3=NC=C(C(=N3)NCCC4=CN=CN4)Br
In short: as §1

[9] = compound: C1CN(CCC1(CC2=CC=C(C=C2)Cl)N)C3=NC=NC4=C3C=CN4
In short: as §1

Measured: log2 fold change

RFC2 (UniProt P35250)
inactive: erlotinib 0.023 | [1] -0.011 | [2] 0.058 | [3] 0 | [4] 0.011 | [5] 0.017 | [6] 0.032 | [7] 0.005 | [8] 0.028 | [9] 0.007

RFC3 (UniProt P40938)
inactive: erlotinib -0.04 | [1] 0.108 | [2] 0.033 | [3] 0.005 | [4] 0.066 | [5] 0.007 | [6] 0.046 | [7] 0.046 | [8] -0.06 | [9] 0.054

RETREG2 (UniProt Q8NC44)
inactive: erlotinib -0.041 | [1] 0.073 | [3] 0.014 | [4] -0.07 | [5] 0.004 | [6] -0.147 | [7] -0.01 | [8] 0.047 | [9] -0.102

Two consecutive entries from above, for reference:
RFC2 (UniProt P35250)
inactive: erlotinib 0.023 | [1] -0.011 | [2] 0.058 | [3] 0 | [4] 0.011 | [5] 0.017 | [6] 0.032 | [7] 0.005 | [8] 0.028 | [9] 0.007

RFC3 (UniProt P40938)
inactive: erlotinib -0.04 | [1] 0.108 | [2] 0.033 | [3] 0.005 | [4] 0.066 | [5] 0.007 | [6] 0.046 | [7] 0.046 | [8] -0.06 | [9] 0.054

The list goes on.

RCC1 isoform 2 (UniProt P18754)
inactive: erlotinib 0.158 | [1] 0.195 | [2] 0.11 | [3] 0.03 | [4] 0.105 | [5] -0.004 | [6] -0.003 | [7] 0.018 | [8] -0.09 | [9] 0.011

RNF187 (UniProt Q5TA31)
inactive: erlotinib 0.095 | [1] -0.05 | [2] -0.061 | [3] -0.028 | [4] 0.101 | [5] -0.028 | [6] -0.067 | [7] 0.008 | [8] 0.017 | [9] -0.056

RBM8A (UniProt Q9Y5S9)
inactive: erlotinib -0.021 | [1] -0.014 | [2] 0.012 | [3] -0.008 | [4] -0.076 | [5] 0.024 | [6] -0.069 | [7] -0.035 | [8] 0.025 | [9] 0.003

RELCH isoform 2 (UniProt Q9P260)
inactive: erlotinib 0.068 | [1] 0.111 | [2] -0.012 | [3] -0.003 | [4] 0.116 | [5] -0.004 | [6] 0.101 | [7] 0.04 | [8] -0.105 | [9] -0.026

RNASEH2A (UniProt O75792)
inactive: erlotinib 0.041 | [1] 0.085 | [2] -0.062 | [3] 0.019 | [4] 0.119 | [5] -0.038 | [6] -0.026 | [7] 0.065 | [8] -0.016 | [9] -0.115

RHBDD2 isoform 2 (UniProt Q6NTF9)
inactive: erlotinib 0.053 | [1] -0.023 | [2] -0.062 | [3] -0.05 | [4] 0.058 | [5] 0.055 | [7] 0

RELN (UniProt P78509)
inactive: erlotinib -0.054 | [1] -0.097 | [2] -0.021 | [3] 0.088 | [4] 0.104 | [5] -0.06 | [6] -0.01 | [7] -0.024 | [8] -0.016 | [9] 0.08

RNF2 (UniProt Q99496)
inactive: erlotinib -0.014 | [1] 0.116 | [2] -0.013 | [3] -0.231 | [4] -0.057 | [5] -0.004 | [7] -0.053 | [8] -0.103 | [9] -0.006

RFWD3 (UniProt Q6PCD5)
inactive: erlotinib 0.153 | [1] 0.053 | [2] 0.005 | [3] -0.006 | [4] 0.015 | [7] 0.14

RFK (UniProt Q969G6)
inactive: erlotinib -0.034 | [1] -0.023 | [2] -0.026 | [3] 0 | [4] -0.055 | [5] 0.02 | [6] 0.046 | [7] 0.064 | [8] -0.01 | [9] 0.045

RC3H1 (UniProt Q5TC82)
inactive: erlotinib 0.007 | [1] 0.018 | [2] -0.046 | [3] 0.069 | [4] -0.189 | [7] 0 | [8] 0.022 | [9] -0.007

RDH14 (UniProt Q9HBH5)
inactive: erlotinib -0.013 | [1] 0.024 | [2] -0.031 | [3] 0.162 | [4] -0.006 | [5] 0.019 | [6] 0.112 | [7] 0.103 | [8] -0.06 | [9] 0.086

RILP (UniProt Q96NA2)
inactive: erlotinib 0 | [1] 0.08 | [2] 0.008 | [3] 0.036 | [4] -0.001 | [5] -0.033 | [6] 0.042 | [7] 0.013 | [8] 0.015 | [9] 0.017

RBSN (UniProt Q9H1K0)
inactive: erlotinib 0.08 | [1] -0.087 | [3] 0.025 | [4] 0.369 | [5] 0.026 | [6] 0.089 | [7] 0.243 | [8] 0.04 | [9] -0.01

RNF20 (UniProt Q5VTR2)
inactive: erlotinib 0.035 | [1] 0.071 | [2] 0.06 | [3] -0.037 | [4] 0.153 | [5] 0.036 | [6] -0.259 | [7] -0.111 | [8] -0.033 | [9] -0.165

RNF146 (UniProt Q9NTX7)
inactive: erlotinib -0.03 | [1] 0.025 | [2] 0.093 | [3] 0.01 | [4] -0.054 | [5] 0 | [6] -0.155 | [7] -0.111 | [8] -0.03 | [9] 0.03

RDH10 (UniProt Q8IZV5)
inactive: erlotinib 0.122 | [1] 0.065 | [2] 0.024 | [3] 0.003 | [4] 0.204 | [5] -0.035 | [6] 0.077 | [7] 0.039 | [8] -0.008 | [9] 0.235

RNF185 (UniProt Q96GF1)
inactive: erlotinib -0.054 | [1] -0.006 | [3] 0.009 | [4] 0.136 | [5] 0.026 | [6] 0.133 | [7] -0.007 | [8] 0.457 | [9] -0.031

RBP4 (UniProt P02753)
inactive: erlotinib -0.226 | [1] 0.285 | [3] 0.165 | [4] 0.007 | [5] 0.327 | [6] 0.01 | [7] -0.08 | [8] 0.186 | [9] 0.173

RNF220 (UniProt Q5VTB9)
inactive: erlotinib 0.017 | [1] 0.034 | [2] 0.017 | [3] 0.011 | [4] 0.034 | [5] 0.03 | [6] 0.026 | [7] 0.011 | [8] -0.008 | [9] -0.022

RDX (UniProt P35241)
inactive: erlotinib -0.017 | [1] -0.019 | [2] 0.191 | [3] 0 | [4] -0.023 | [5] 0 | [6] 0.039 | [7] -0.021 | [8] -0.018 | [9] 0.023

RBP5 (UniProt P82980)
inactive: erlotinib 0.027 | [1] 0.058 | [2] 0.117 | [3] -0.036 | [4] 0.074 | [5] 0 | [7] -0.043 | [8] 0.07 | [9] 0.19

RICTOR isoform 3 (UniProt Q6R327)
inactive: erlotinib 0.116 | [1] 0.025 | [2] -0.067 | [3] 0.36 | [4] -0.031 | [7] -0.136 | [8] 0.054 | [9] -0.001

RHOA (UniProt P61586)
inactive: erlotinib 0.028 | [1] -0.029 | [2] 0.012 | [3] -0.052 | [4] -0.094 | [5] -0.161 | [6] 0.114 | [7] 0.018 | [8] -0.05 | [9] 0.01

RIT1 isoform 3 (UniProt Q92963)
inactive: erlotinib -0.002 | [2] -0.05 | [3] -0.211

RIMKLB (UniProt Q9ULI2)
inactive: erlotinib -0.25 | [2] -0.234 | [3] -0.02 | [5] -0.133

RMDN2 isoform 2 (UniProt Q96LZ7)
inactive: [6] 0.088

RHBDD1 (UniProt Q8TEB9)
inactive: erlotinib 0.039 | [2] 0.037 | [3] 0.029 | [5] 0.083 | [6] 0.006

RNF11 (UniProt Q9Y3C5)
inactive: [6] 0.085

RNF13 (UniProt O43567)
inactive: [1] -0.1 | [2] 0.027 | [4] -0.046 | [5] 0.031 | [7] -0.021 | [8] 0.004 | [9] -0.011
